# Results: patent EP1928451B1, “METHODS FOR TREATING SUBSTANCE-RELATED DISORDERS” (SK Biopharmaceuticals Co., LTD, priority 2005, dated 2007)
# System: selectively-bred alcohol preferring (P) rats
# Assay: Chronic administration: two-bottle choice alcohol intake in alcohol preferring rats
# Assay type: in vivo
# Procedure: A compound of the present invention was tested in ethanol preferring rats, a model for acute and chronic drug addiction in humans using an adaptation of a published method (See, Rezvani, AH et al. Alcohol & Alcoholism, Vol. 25, No. 5, pp. 573-575, 1990, Rezvani AH, et al., Alcohol and Alcoholism (Oxford), 2000, 35(1), 76-83).
# An enantiomer of Formula (Ib) was orally administered in a dose range of from about 10 to about 90 mg/kg in test and control treatment groups of 10 rats per group over a period of 14 days. Test conditions reflected approaches for evaluating patterns of drinking (e.g., single or multiple events).
# Adult male selectively-bred alcohol preferring (P) rats were used. The selectively-bred alcohol-preferring (P) rats have been characterized and have been widely used to study the effects of different compounds on voluntary alcohol intake (Rezvani et al, 1990, 1991, 1992a, 1992b, 1999, 2000, 2002; 2003; Murphy et al, 1988; Overstreet et al., 1992, 1999; Li and McBride, 1995).
# Rats were housed individually in wire mesh cages under a constant room temperature of 22 +1 °C and 12:12 light-dark cycle (8:00-20:00, dark). Animal were fed Agway Prolab Rat/Mouse/ Hamster 3000 formula and water ad libitum.
# Establishment of baseline alcohol intake: Alcohol intake was determined using a standard two-bottle choice method (as described in Murphy et al. 1988; McBride et al. 1990; Rezvani et al. 1990, 1991, 1993, 1995, 1997, Rezvani and Grady, 1994).
# Animals were first given free access to water in a graduated Richter tube for 1 day. After the first day, the animals were given access to only a solution of 10% (v/v) ethanol for 3 consecutive days. During this period animals became accustomed to drinking from Richter tubes and to the taste and pharmacological effects of alcohol. Thereafter, they were given free access to both water and a solution of 10% alcohol for at least 3 consecutive weeks and throughout of the period of study. The rats had free access to food. Water and alcohol intake was recorded at 6 and 24 hour after the treatment, food intake was measured at 24 hour. Animal body weight was measured every day.
# The effect of chronic administration of a test compound on alcohol intake and tolerance to the anti-craving effects of the test compound was tested in naïve rats treated (via gavage tube) once a day either vehicle or test compound. A test compound dose of 45 mg/Kg was selected as an effective dose for chronic administration based on the results of the acute administration study phase. Themost effective dose was then used for the chronic adminstiration phase and administered for 14 consecutive days. Alcohol and water intake was recorded 6 and 24 h after each treatment administration and food intake was recorded at 24 hr.
# The results were presented as means ±SEM (Standard Error of the Means). Alcohol intake (g/kg) was calculated by multiplying the volume of alcohol consumed in mL by 10% and 0.7893 (a factor representing ethanol density)/body weight in kg. Alcohol preference, expressed as percentage, was calculated as follows (volume of alcohol consumed (mL)/total fluid intake (mL)) x 100 (as described in Rezvani and Grady,. 1994; Rezvani et al., 1997). Statistical differences between treatment and control groups were determined by using ANOVA and Turkey Student's t test for multiple comparisons.
smiles,measurement,setting,value
NC(=O)OC[C@@H](O)c1ccccc1Cl [Drug],Total Fluid Intake,"Day 1, 45 mg/Kg once a day via gavage",82 mL/kg
same,Total Fluid Intake,"Day 2, 45 mg/Kg once a day via gavage",76 mL/kg
same,Total Fluid Intake,"Day 3, 45 mg/Kg once a day via gavage",77 mL/kg
same,Total Fluid Intake,"Day 4, 45 mg/Kg once a day via gavage",81 mL/kg
same,Total Fluid Intake,"Day 5, 45 mg/Kg once a day via gavage",83 mL/kg
same,Total Fluid Intake,"Day 6, 45 mg/Kg once a day via gavage",75 mL/kg
same,Total Fluid Intake,"Day 7, 45 mg/Kg once a day via gavage",71 mL/kg
same,Total Fluid Intake,"Day 8, 45 mg/Kg once a day via gavage",80 mL/kg
same,Total Fluid Intake,"Day 9, 45 mg/Kg once a day via gavage",67 mL/kg
same,Total Fluid Intake,"Day 10, 45 mg/Kg once a day via gavage",83 mL/kg
same,Total Fluid Intake,"Day 11, 45 mg/Kg once a day via gavage",67 mL/kg
same,Total Fluid Intake,"Day 12, 45 mg/Kg once a day via gavage",60 mL/kg
same,Total Fluid Intake,"Day 13, 45 mg/Kg once a day via gavage",78 mL/kg
same,Total Fluid Intake,"Day 14, 45 mg/Kg once a day via gavage",83 mL/kg
